Measurements published in the supplement of paper PMC6411743.
± gives the standard deviation of the averaged measurements. The list shows a part of the results, in another mix than the full data.

Sequences of proteins named here, by UniProt entry; tags and fusion partners are left off. A change or cut given only in a name is not applied to a line headed by its entry.
UniProt O15372, whole entry: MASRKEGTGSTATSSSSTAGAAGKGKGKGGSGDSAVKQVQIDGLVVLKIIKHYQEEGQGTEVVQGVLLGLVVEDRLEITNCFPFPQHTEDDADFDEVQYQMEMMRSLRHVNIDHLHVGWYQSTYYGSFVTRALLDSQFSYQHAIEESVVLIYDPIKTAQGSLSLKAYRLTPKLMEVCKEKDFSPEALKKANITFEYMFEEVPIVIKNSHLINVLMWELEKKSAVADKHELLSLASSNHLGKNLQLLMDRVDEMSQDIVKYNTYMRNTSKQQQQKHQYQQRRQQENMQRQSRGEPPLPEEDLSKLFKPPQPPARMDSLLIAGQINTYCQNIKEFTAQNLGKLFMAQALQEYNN
UniProt Q969T9: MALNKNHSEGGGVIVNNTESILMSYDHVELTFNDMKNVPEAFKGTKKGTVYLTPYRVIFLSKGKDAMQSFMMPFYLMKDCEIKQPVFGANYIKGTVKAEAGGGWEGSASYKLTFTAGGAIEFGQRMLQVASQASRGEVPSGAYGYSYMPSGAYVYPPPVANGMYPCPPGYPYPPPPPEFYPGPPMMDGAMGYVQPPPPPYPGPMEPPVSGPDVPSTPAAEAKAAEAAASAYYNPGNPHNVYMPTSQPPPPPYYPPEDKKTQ
UniProt Q969M7: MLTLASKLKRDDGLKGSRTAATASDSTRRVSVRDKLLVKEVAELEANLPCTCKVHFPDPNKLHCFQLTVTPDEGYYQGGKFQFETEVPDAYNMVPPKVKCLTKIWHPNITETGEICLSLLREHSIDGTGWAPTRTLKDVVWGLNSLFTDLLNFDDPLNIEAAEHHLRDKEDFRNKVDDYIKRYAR
UniProt Q9NY35: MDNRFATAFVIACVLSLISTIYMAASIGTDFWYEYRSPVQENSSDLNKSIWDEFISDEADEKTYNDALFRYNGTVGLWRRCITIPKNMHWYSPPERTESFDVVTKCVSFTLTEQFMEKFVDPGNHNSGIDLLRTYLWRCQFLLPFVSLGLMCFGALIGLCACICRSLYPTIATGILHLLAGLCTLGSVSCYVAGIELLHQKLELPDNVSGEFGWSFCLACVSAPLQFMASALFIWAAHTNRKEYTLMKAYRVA
UniProt Q02833: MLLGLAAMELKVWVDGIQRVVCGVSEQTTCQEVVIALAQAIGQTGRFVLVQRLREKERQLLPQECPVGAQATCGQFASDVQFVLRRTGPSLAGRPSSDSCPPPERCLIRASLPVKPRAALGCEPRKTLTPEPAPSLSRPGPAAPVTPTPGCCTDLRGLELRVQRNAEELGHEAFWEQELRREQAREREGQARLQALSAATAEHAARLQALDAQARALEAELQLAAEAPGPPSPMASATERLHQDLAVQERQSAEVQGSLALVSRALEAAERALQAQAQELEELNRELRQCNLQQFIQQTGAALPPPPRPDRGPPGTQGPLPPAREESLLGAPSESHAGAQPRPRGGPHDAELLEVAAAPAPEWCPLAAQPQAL
UniProt Q9H825: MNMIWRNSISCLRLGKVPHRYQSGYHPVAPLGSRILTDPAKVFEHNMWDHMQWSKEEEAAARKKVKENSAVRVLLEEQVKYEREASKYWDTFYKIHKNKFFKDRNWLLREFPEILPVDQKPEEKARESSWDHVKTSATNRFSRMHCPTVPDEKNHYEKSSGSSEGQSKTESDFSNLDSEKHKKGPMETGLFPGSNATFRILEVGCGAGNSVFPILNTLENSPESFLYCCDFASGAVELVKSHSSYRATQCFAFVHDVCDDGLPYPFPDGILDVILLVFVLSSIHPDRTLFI
UniProt Q9NZK5: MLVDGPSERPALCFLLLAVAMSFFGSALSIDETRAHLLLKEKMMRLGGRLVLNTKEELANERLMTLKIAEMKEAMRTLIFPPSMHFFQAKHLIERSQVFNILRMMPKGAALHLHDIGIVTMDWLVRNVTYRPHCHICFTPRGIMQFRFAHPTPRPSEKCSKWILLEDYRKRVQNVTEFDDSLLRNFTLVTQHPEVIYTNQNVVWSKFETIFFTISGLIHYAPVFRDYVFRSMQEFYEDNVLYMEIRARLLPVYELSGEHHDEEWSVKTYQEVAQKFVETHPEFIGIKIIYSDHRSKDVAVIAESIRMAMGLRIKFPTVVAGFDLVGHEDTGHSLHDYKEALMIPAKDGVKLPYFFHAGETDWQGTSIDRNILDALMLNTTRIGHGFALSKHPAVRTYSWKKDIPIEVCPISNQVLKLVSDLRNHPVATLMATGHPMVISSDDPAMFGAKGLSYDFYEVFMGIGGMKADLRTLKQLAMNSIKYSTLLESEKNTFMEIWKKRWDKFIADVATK
UniProt Q9H6K4: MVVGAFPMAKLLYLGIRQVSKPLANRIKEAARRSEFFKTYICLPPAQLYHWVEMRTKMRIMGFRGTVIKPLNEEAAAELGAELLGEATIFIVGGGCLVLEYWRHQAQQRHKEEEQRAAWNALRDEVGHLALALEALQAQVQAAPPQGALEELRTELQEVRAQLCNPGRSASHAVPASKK
UniProt O60573: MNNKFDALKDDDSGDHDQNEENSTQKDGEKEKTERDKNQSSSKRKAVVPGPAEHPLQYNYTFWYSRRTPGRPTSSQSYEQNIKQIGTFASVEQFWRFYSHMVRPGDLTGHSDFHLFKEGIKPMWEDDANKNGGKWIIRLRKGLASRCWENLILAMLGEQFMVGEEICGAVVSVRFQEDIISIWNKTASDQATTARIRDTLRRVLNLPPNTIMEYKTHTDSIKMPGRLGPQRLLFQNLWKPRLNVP
UniProt Q8NBQ5: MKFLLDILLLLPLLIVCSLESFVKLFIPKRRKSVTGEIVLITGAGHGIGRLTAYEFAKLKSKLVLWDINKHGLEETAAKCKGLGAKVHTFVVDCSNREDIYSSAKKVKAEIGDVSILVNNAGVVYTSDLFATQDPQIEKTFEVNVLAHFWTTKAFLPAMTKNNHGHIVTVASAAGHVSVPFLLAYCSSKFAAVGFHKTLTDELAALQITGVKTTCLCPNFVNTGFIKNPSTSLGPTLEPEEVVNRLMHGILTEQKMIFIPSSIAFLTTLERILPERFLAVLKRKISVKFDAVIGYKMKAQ
UniProt Q9Y228: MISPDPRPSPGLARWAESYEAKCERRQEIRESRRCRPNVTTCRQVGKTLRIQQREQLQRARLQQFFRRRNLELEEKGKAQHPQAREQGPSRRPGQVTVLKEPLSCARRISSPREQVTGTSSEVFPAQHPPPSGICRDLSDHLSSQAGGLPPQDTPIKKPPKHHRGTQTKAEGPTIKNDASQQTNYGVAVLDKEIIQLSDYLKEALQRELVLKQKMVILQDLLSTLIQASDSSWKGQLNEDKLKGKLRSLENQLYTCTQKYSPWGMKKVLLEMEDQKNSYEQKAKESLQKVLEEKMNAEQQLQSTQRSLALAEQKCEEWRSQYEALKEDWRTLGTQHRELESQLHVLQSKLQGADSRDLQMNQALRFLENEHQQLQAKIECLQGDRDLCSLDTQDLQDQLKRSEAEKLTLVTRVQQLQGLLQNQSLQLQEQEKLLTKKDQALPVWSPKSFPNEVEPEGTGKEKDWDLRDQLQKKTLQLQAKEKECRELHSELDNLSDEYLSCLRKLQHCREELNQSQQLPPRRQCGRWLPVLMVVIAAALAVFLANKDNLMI
UniProt A2RUC4: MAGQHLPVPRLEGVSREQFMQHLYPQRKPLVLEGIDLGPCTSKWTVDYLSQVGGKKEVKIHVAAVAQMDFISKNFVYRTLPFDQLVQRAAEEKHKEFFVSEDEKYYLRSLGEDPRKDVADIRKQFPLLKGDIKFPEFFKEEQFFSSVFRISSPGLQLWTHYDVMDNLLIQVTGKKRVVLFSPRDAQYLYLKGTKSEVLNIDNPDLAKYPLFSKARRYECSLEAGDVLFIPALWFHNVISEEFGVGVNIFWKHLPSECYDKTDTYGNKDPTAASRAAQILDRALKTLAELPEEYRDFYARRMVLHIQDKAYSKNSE
UniProt Q9BZK7: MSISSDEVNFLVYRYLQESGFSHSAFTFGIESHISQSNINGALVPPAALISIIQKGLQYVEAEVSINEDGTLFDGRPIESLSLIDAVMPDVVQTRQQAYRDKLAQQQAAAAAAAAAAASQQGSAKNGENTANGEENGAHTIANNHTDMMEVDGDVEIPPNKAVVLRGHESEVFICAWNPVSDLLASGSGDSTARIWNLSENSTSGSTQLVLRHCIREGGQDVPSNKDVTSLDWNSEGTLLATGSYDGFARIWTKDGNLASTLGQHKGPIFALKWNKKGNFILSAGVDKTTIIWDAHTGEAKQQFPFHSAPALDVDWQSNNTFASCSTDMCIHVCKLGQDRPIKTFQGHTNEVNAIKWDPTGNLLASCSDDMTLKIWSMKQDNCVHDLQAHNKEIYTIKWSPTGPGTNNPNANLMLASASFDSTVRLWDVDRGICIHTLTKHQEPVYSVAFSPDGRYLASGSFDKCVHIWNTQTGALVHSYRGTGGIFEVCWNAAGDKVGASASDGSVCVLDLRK
UniProt Q5JSL3: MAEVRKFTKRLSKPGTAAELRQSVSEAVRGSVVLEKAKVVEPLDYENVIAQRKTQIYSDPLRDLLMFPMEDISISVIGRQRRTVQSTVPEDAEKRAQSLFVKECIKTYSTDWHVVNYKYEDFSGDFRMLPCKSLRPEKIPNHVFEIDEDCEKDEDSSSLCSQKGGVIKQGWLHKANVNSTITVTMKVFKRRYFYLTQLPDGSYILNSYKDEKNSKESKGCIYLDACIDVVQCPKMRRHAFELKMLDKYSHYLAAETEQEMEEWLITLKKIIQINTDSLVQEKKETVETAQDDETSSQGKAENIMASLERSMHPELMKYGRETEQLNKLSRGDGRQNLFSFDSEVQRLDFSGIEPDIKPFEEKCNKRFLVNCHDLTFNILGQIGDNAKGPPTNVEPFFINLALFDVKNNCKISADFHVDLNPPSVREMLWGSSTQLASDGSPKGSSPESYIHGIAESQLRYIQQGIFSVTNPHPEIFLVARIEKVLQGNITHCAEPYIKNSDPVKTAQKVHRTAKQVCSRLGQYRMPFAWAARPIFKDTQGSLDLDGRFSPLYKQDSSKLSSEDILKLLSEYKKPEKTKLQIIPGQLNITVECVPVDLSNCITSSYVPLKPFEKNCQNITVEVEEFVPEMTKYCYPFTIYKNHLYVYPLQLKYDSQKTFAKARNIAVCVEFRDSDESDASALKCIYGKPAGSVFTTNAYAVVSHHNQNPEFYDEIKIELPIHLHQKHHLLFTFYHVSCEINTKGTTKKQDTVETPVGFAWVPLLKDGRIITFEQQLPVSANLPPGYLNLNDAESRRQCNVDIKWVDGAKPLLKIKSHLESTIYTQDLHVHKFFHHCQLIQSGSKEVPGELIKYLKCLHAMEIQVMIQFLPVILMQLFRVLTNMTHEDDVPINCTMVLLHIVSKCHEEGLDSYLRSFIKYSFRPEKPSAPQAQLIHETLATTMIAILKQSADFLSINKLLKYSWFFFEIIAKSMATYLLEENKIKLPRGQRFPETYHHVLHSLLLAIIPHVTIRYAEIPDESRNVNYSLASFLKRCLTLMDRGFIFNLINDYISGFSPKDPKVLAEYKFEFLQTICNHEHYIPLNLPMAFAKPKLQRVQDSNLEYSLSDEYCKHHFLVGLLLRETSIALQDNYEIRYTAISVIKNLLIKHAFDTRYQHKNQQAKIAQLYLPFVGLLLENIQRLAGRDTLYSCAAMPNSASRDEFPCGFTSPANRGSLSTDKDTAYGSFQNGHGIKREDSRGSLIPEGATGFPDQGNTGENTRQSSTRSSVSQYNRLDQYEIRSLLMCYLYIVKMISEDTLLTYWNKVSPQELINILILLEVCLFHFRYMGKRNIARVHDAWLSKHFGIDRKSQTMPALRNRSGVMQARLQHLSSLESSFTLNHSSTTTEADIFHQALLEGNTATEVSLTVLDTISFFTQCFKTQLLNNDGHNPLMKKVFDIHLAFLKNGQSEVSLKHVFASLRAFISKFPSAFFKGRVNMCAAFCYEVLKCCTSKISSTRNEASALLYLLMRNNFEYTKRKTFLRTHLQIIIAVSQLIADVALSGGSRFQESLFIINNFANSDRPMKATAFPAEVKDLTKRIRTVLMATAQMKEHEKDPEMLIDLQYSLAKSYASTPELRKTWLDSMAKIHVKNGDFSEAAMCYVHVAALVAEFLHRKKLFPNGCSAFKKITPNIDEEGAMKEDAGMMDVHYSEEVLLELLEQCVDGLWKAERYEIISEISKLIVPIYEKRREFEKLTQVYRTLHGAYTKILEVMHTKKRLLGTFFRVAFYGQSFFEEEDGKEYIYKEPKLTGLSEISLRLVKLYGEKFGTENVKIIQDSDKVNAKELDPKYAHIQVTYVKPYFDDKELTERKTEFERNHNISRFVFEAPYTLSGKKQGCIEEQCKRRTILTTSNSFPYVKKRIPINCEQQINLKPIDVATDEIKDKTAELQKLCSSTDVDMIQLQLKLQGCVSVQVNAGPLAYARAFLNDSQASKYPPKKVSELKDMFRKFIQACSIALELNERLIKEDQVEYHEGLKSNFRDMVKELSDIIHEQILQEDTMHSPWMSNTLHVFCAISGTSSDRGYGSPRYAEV

Compound: Nc1ncnc2c1ncn2[C@@H]1O[C@H](COP(=O)(O)OP(=O)(O)OP(=O)(O)O)[C@@H](O)[C@H]1O [adenosine triphosphate]
Assay: NP40-soluble protein abundance relative to vehicle (solubility fold change) (ratio); higher = more soluble protein in presence of ATP
Summary of the method: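 Across three independent experiments, values are fold changes against the detergent-processed vehicle for each replicate, based on vsn-normalised intensities. The samples were Jurkat crude lysate treated with eight concentrations (0.1 to 10 mM) for 10 min at room temperature and then 3 min at 37 °C. Lysate was solubilised with 0.8% NP40 and benzonase, ultracentrifuged, and the supernatant analysed by TMT-labelled LC-MS/MS.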

Target	NP40-soluble protein abundance (concentration: 1mM)	NP40-soluble protein abundance (concentration: 2mM)	NP40-soluble protein abundance (concentration: 4mM)	NP40-soluble protein abundance (concentration: 6mM)	NP40-soluble protein abundance (concentration: 8mM)	NP40-soluble protein abundance (concentration: 10mM)
B3KS98 and related entries (UniProt O15372)	0.993 ± 0.041	1.01 ± 0.075	1.08 ± 0.071	1.25 ± 0.13	1.33 ± 0.094	1.48 ± 0.13
A6NG10 and related entries (UniProt Q969T9)	0.912 ± 0.031	0.957 ± 0.045	0.908 ± 0.026	0.928 ± 0.058	0.894 ± 0.049	0.924 ± 0.012
C9J9P8 and related entries (UniProt Q969M7)	0.915 ± 0.077	0.938 ± 0.046	0.902 ± 0.073	0.93 ± 0.044	0.907 ± 0.059	0.86 ± 0.13
A0A0R4J2F2|D6R9S8 and related entries (UniProt Q9NY35)	0.929 ± 0.095	0.973 ± 0.084	0.957 ± 0.012	0.947 ± 0.09	0.877 ± 0.043	0.905 ± 0.031
A0A0G2JLR5|A0A0G2JMW4|Q02833 and related entries (UniProt Q02833)	1 ± 0.013	0.963 ± 0.059	0.924 ± 0.025	0.97 ± 0.062	0.898 ± 0.021	0.847 ± 0.067
B3KW44 and related entries (UniProt Q9H825+E7ETE0+B5ME25+B3KW44)	0.927 ± 0.17	0.972 ± 0.041	1.02 ± 0.11	1.02 ± 0.11	0.971 ± 0.089	1.06 ± 0.11
B9ZVU2 and related entries (UniProt Q9ULA0)	1.02 ± 0.046	0.974 ± 0.034	0.939 ± 0.03	0.932 ± 0.0098	0.982 ± 0.023	0.949 ± 0.029
B4E3Q4 and related entries (UniProt Q9NZK5)	1.03 ± 0.032	0.9992 ± 0.0063	0.99 ± 0.018	0.948 ± 0.055	1 ± 0.041	0.991 ± 0.039
B4DK77 and related entries (UniProt Q9H6K4)	1.07 ± 0.15	0.9506 ± 0.0033	1.14 ± 0.078	0.9515 ± 0.0055	1.04 ± 0.15	0.936 ± 0.11
C9J0Q5 and related entries (UniProt Q9Y618)	0.988 ± 0.072	0.989 ± 0.06	1.03 ± 0.076	1.06 ± 0.11	1.01 ± 0.066	1.05 ± 0.079
C9IYN7 and related entries (UniProt Q0PNE2)	1.15 ± 0.26	1.04 ± 0.15	1.03 ± 0.23	0.833 ± 0.18	1.12 ± 0.12	1.03 ± 0.082
B5MDF5 and related entries (UniProt P62826)	1.01 ± 0.034	0.983 ± 0.034	0.949 ± 0.025	0.967 ± 0.06	0.934 ± 0.034	0.957 ± 0.053
C9JIF9 and related entries (UniProt P13798)	0.986 ± 0.066	0.95 ± 0.047	0.909 ± 0.053	0.92 ± 0.043	0.964 ± 0.05	0.923 ± 0.054
B4DJV2 and related entries (UniProt O75390)	0.869 ± 0.34	0.934 ± 0.35	0.773 ± 0.24	0.844 ± 0.24	0.825 ± 0.044	0.749 ± 0.12
B8ZZ50 and related entries (UniProt O60573)	1.04 ± 0.075	1.07 ± 0.071	1.1 ± 0.068	1.15 ± 0.0016	1.16 ± 0.058	1.13 ± 0.082
LIPT2 (UniProt A6NK58)	0.855 ± 0.03	0.938 ± 0.018	0.903 ± 0.092	0.878 ± 0.07	0.858 ± 0.085	0.891 ± 0.073
D6RCD0 and related entries (UniProt Q8NBQ5)	0.991 ± 0.099	0.976 ± 0.035	0.997 ± 0.045	0.884 ± 0.11	0.965 ± 0.03	1.03 ± 0.02
C9J5X1 and related entries (UniProt P08069)	0.943 ± 0.069	0.973 ± 0.085	1.01 ± 0.12	1.03 ± 0.056	0.951 ± 0.06	0.997 ± 0.1
B1AJU2 and related entries (UniProt Q9Y228)	0.95 ± 0.12	0.9 ± 0.094	0.937 ± 0.084	0.958 ± 0.17	0.963 ± 0.068	0.874 ± 0.15
UniProt A2RUC4 and related entries	1.03 ± 0.063	0.987 ± 0.055	1.01 ± 0.12	1.04 ± 0.13	1.03 ± 0.15	1.06 ± 0.034
C9JLJ1 and related entries (UniProt Q9BZK7)	1 ± 0.085	1.02 ± 0.051	0.976 ± 0.058	0.959 ± 0.013	0.99 ± 0.048	1.04 ± 0.042
D6RER5 and related entries (UniProt Q9NVA2)	1 ± 0.032	1.01 ± 0.027	0.982 ± 0.011	1.01 ± 0.04	0.943 ± 0.025	0.9937 ± 0.004
C9J4Z3 and related entries (UniProt P61513)	0.958 ± 0.047	0.982 ± 0.098	0.979 ± 0.083	0.918 ± 0.14	0.901 ± 0.13	0.986 ± 0.084
A0A0R4J2E2|Q9Y3T6 and related entries (UniProt Q9Y3T6)	0.945 ± 0.055	0.975 ± 0.027	0.957 ± 0.028	0.933 ± 0.031	0.947 ± 0.024	0.949 ± 0.018
D6RA37 and related entries (UniProt Q13454)	1.02 ± 0.088	1 ± 0.051	0.97 ± 0.056	0.938 ± 0.07	0.998 ± 0.04	1.03 ± 0.029
A6NIW2 and related entries (UniProt Q5JSL3)	1.06 ± 0.087	1.01 ± 0.064	1.02 ± 0.072	0.972 ± 0.049	1.05 ± 0.056	0.992 ± 0.019
A0A0U1RR27|Q7Z401 and related entries (UniProt Q7Z401)	0.968 ± 0.073	0.949 ± 0.057	0.951 ± 0.055	1 ± 0.11	0.939 ± 0.031	0.931 ± 0.043
YDJC (UniProt A8MPS7)	1.03 ± 0.039	1.08 ± 0.052	1.02 ± 0.043	1 ± 0.056	0.986 ± 0.055	0.982 ± 0.046
B1AM27 and related entries (UniProt O14795)	1.02 ± 0.045	1.03 ± 0.09	1.03 ± 0.048	1.07 ± 0.12	1.05 ± 0.043	1.03 ± 0.099
D6RD47 and related entries (UniProt P62266)	0.918 ± 0.052	0.9 ± 0.077	0.869 ± 0.069	0.81 ± 0.097	0.785 ± 0.09	0.831 ± 0.056

Two entries from above in another layout:
D6RCD0 and related entries (UniProt Q8NBQ5)
  NP40-soluble protein abundance (concentration: 1mM): 0.991 ± 0.099
  NP40-soluble protein abundance (concentration: 2mM): 0.976 ± 0.035
  NP40-soluble protein abundance (concentration: 4mM): 0.997 ± 0.045
  NP40-soluble protein abundance (concentration: 6mM): 0.884 ± 0.11
  NP40-soluble protein abundance (concentration: 8mM): 0.965 ± 0.03
  NP40-soluble protein abundance (concentration: 10mM): 1.03 ± 0.02
C9J5X1 and related entries (UniProt P08069)
  NP40-soluble protein abundance (concentration: 1mM): 0.943 ± 0.069
  NP40-soluble protein abundance (concentration: 2mM): 0.973 ± 0.085
  NP40-soluble protein abundance (concentration: 4mM): 1.01 ± 0.12
  NP40-soluble protein abundance (concentration: 6mM): 1.03 ± 0.056
  NP40-soluble protein abundance (concentration: 8mM): 0.951 ± 0.06
  NP40-soluble protein abundance (concentration: 10mM): 0.997 ± 0.1
